Data: publication PMC8231113, “Protein Secondary Structure Affects Glycan Clustering in Native Mass Spectrometry” (Life, 2021)

Tested on: SAGA P dimers
Experiment: Native MS glycan clustering ratio on SAGA P dimers
Format: binding, human norovirus (hNoV)
Details: on SAGA P dimer

CC(=O)N[C@H]1[C@H](O[C@H]2[C@@H](O)[C@@H](CO)O[C@H](O[C@@H]3[C@H](O)[C@@H](O)[C@H](O[C@H]4[C@H](O)[C@@H](O)C(O)O[C@@H]4CO)O[C@@H]3CO)[C@@H]2O)O[C@H](CO)[C@H](O)[C@@H]1O (stereo partly drawn) [Gb4, GalNAc β1-3 Galα1-4Galβ1-4Glc]
Glycan-Clustering Ratio R (100 µM glycan): 0.35±0.06
Glycan-Clustering Ratio R (200 µM glycan): 0.60± 0.09
Glycan-Clustering Ratio R (300 µM glycan): 1.05±0.09
Glycan-Clustering Ratio R (400 µM glycan): 1.21± 0.15
Glycan-Clustering Ratio R (500 µM glycan): 1.40 ± 0.21

CC(=O)N[C@H]1[C@@H](O[C@H]2[C@@H](O)[C@@H](CO)O[C@@H](O[C@H]3[C@H](O)[C@@H](CO)OC(O)[C@@H]3NC(C)=O)[C@@H]2O[C@@H]2O[C@@H](C)[C@@H](O)[C@@H](O)[C@@H]2O)O[C@H](CO)[C@H](O)[C@@H]1O (stereo partly drawn) [HBGA A, GalNAcα1-3(Fucα-2)Galβ1-3GlcNAc]
Glycan-Clustering Ratio R (100 µM glycan): 0.37± 0.13
Glycan-Clustering Ratio R (200 µM glycan): 0.66± 0.10
Glycan-Clustering Ratio R (300 µM glycan): 0.98± 0.08
Glycan-Clustering Ratio R (400 µM glycan): 1.34± 0.26
Glycan-Clustering Ratio R (500 µM glycan): 1.44 ± 0.15

CC(=O)N[C@H]1C(O)O[C@H](CO)[C@@H](O)[C@@H]1O[C@@H]1O[C@H](CO)[C@H](O)[C@H](O[C@H]2O[C@H](CO)[C@H](O)[C@H](O)[C@H]2O)[C@H]1O[C@@H]1O[C@@H](C)[C@@H](O)[C@@H](O)[C@@H]1O (stereo partly drawn) [HBGA B, Galα1-3(Fucα1-2)Galβ1-3GlcNAc]
Glycan-Clustering Ratio R (100 µM glycan): 0.44± 0.07
Glycan-Clustering Ratio R (200 µM glycan): 0.62± 0.05
Glycan-Clustering Ratio R (300 µM glycan): 1.01± 0.02
Glycan-Clustering Ratio R (400 µM glycan): 1.31± 0.20
Glycan-Clustering Ratio R (500 µM glycan): 1.55 ± 0.05
